Measurements reported in PubChem BioAssay AID1053208 (Peter MacCallum Cancer Centre, 2014)

- Screen: 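Synthetic lethal interactions between gene loss and doxorubicin in osteosarcoma cells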 (primary screen)
- Cell system: mouse osteosarcoma cells, early-passage culture from an engineered mouse model of fibroblastic bone tumour
- Reagents: siRNA pool against mouse genes, 40 nM
- Time to read-out: about 120 h (48 h before drug, then 72 h with drug)
- Treatment: doxorubicin 100 nM for 72 h, roughly 30-40% inhibitory dose
- Detection: 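Viability read as ATP luminescence after 72 h of 100 nM doxorubicin or none, duplicate wells averaged, scaled to non-targeting siRNA, then expressed as robust z-scores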
- Reading the numbers: viability z-score with doxorubicin: higher = more viable cells under doxorubicin; viability z-score without drug: higher = more viable cells with knock-down alone
- Rule for the call: 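Called active if knock-down leaves viability unchanged without drug (z within -2 to 2) but lowers it with doxorubicin (z at or under -2)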
Here is one part, drawn at random, of about 17,000 deposited reagents. 788 of all reagents (4.7%) were called active. 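Calls rest on z-score classes alone; an extra cut-off of viability at most 70% of control was not applied to them.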 A number with no mark means an inactive call. Further read-outs or replicates are left out here.

Eef1a1 (eukaryotic translation elongation factor 1 alpha 1) → combined z-score class = low cell count with doxorubicin only (active); viability z-score with doxorubicin = -3.48; viability z-score without drug = -1.85
Pign (phosphatidylinositol glycan anchor biosynthesis, class N) → combined z-score class = no change with or without drug; viability z-score with doxorubicin = 0.9; viability z-score without drug = 1.18
Or51f1d (olfactory receptor family 51 subfamily F member 1D) → combined z-score class = low cell count with doxorubicin only (active); viability z-score with doxorubicin = -2.25; viability z-score without drug = -1.52
Ppdpf → combined z-score class = no change with or without drug; viability z-score with doxorubicin = 0.22; viability z-score without drug = 0.34
Map3k21 (mitogen-activated protein kinase kinase kinase 21) → combined z-score class = no change with or without drug; viability z-score with doxorubicin = 0.22; viability z-score without drug = -0.17
Cox11 (cytochrome c oxidase assembly protein 11, copper chaperone) → combined z-score class = no change with or without drug; viability z-score with doxorubicin = -0.56; viability z-score without drug = 0.84
Or5b112 (olfactory receptor family 5 subfamily B member 112) → combined z-score class = low cell count with doxorubicin only (active); viability z-score with doxorubicin = -2.14; viability z-score without drug = -1.01
Gas2 (growth arrest specific 2) → combined z-score class = low cell count without drug only; viability z-score with doxorubicin = -1.69; viability z-score without drug = -2.19
Gabarapl2 (GABA type A receptor associated protein like 2) → combined z-score class = low cell count with doxorubicin only (active); viability z-score with doxorubicin = -3.93; viability z-score without drug = 1.85
Cyp2j13 (cytochrome P450, family 2, subfamily j, polypeptide 13) → combined z-score class = no change with or without drug; viability z-score with doxorubicin = 0; viability z-score without drug = 0.17
Txndc2 (thioredoxin domain containing 2 (spermatozoa)) → combined z-score class = no change with or without drug; viability z-score with doxorubicin = 0; viability z-score without drug = -0.67
Ahrr (aryl-hydrocarbon receptor repressor) → combined z-score class = no change with or without drug; viability z-score with doxorubicin = -1.57; viability z-score without drug = -0.17
Hsd17b4 (hydroxysteroid (17-beta) dehydrogenase 4) → combined z-score class = no change with or without drug; viability z-score with doxorubicin = -1.35; viability z-score without drug = -1.52
2610204M12RIK → combined z-score class = no change with or without drug; viability z-score with doxorubicin = 0.67; viability z-score without drug = 1.01
Scube1 (signal peptide, CUB domain, EGF-like 1) → combined z-score class = no change with or without drug; viability z-score with doxorubicin = 1.12; viability z-score without drug = 0.51
Serpina5 (serine (or cysteine) peptidase inhibitor, clade A, member 5) → combined z-score class = no change with or without drug; viability z-score with doxorubicin = 0; viability z-score without drug = 0.84
Bmp10 (bone morphogenetic protein 10) → combined z-score class = no change with or without drug; viability z-score with doxorubicin = 0; viability z-score without drug = 0.67
Tradd (TNFRSF1A-associated via death domain) → combined z-score class = no change with or without drug; viability z-score with doxorubicin = 0.67; viability z-score without drug = 1.01
Mcub → combined z-score class = no change with or without drug; viability z-score with doxorubicin = 0.9; viability z-score without drug = 0.84
Uggt2 (UDP-glucose glycoprotein glucosyltransferase 2) → combined z-score class = no change with or without drug; viability z-score with doxorubicin = -1.24; viability z-score without drug = -0.51
Mtrr → combined z-score class = no change with or without drug; viability z-score with doxorubicin = -0.34; viability z-score without drug = -1.18
Lancl3 (LanC lantibiotic synthetase component C-like 3 (bacterial)) → combined z-score class = no change with or without drug; viability z-score with doxorubicin = -0.9; viability z-score without drug = 0.17
Atp6v1c1 (ATPase, H+ transporting, lysosomal V1 subunit C1) → combined z-score class = no change with or without drug; viability z-score with doxorubicin = 0; viability z-score without drug = 0.17
Fras1 (Fraser extracellular matrix complex subunit 1) → combined z-score class = no change with or without drug; viability z-score with doxorubicin = 0.34; viability z-score without drug = 0.17
Tdrd1 (tudor domain containing 1) → combined z-score class = low cell count with and without drug; viability z-score with doxorubicin = -2.92; viability z-score without drug = -3.88
Gfra4 → combined z-score class = no change with or without drug; viability z-score with doxorubicin = -1.8; viability z-score without drug = -1.85
Cnot6l (CCR4-NOT transcription complex, subunit 6-like) → combined z-score class = no change with or without drug; viability z-score with doxorubicin = -1.12; viability z-score without drug = -1.01
Gja5 (gap junction protein, alpha 5) → combined z-score class = no change with or without drug; viability z-score with doxorubicin = 0.22; viability z-score without drug = 0.17
